Results from patent US11135246B2, “Peptides and combination of peptides for use in immunotherapy against leukemias and other cancers” (Immatics Biotechnologies GmbH, priority 2017, dated 2021).

System: HLA molecules of primary tumor samples
Assay: Identification of tumor associated peptides presented on the cell surface (HLA immune precipitation, LC-MS)
Parameters: species or system human
Conditions: for Peptide Presentation on cancer entities: entities on which the peptide was presented, CLL = chronic lymphocytic leukemia, AML = acute myeloid leukemia, CML = Chronic myeloid leukemia; for Peptide Presentation on tumor types: tumor entities on which the peptide was found presented (Table 8b)

| Substance | Peptide Presentation on cancer entities | Peptide Presentation on tumor types |
| --- | --- | --- |
| 98 (YPIALTRAEM; listed as Homo sapiens) [compound 98] | CLL | BRCA, CCC, GBC, GC, HNSCC, MEL, NHL, NSCLCadeno, NSCLCother, NSCLCsquam, OC, OSCAR, PACA, PRCA, RCC, SCLC, UEC |
| 99 (SPRAINNLVL; listed as Homo sapiens) [compound 99] | CLL | NHL |
| 100 (YPYQERVFL; listed as Homo sapiens) [compound 100] | CML | NHL, NSCLCadeno, NSCLCsquam |
| 101 (NPRYPNYMF; listed as Homo sapiens) [compound 101] | CLL | NHL |
| 102 (LPLSMEAKI; listed as Homo sapiens) [compound 102] | CML |  |
| 103 (IPANTEKASF; listed as Homo sapiens) [compound 103] | CLL |  |
| 104 (RPMTPTQIGPSL; listed as Homo sapiens) [compound 104] | CLL | NHL |
| 105 (NPLTKLLAI; listed as Homo sapiens) [compound 105] | AML | CCC, MEL, NHL, NSCLCadeno, NSCLCother, NSCLCsquam, OC |
| 106 (KAFKWFSAL; listed as Homo sapiens) [compound 106] | CLL | NHL |
| 107 (QAAQRTAL; listed as Homo sapiens) [compound 107] | CLL |  |
| 108 (ILAIRQNAL; listed as Homo sapiens) [compound 108] | CLL | CCC, NHL, OC |
| 109 (LGHVRYVL; listed as Homo sapiens) [compound 109] | CLL | CCC, GBM, NHL, UBC |
| 110 (FGLARIYSF; listed as Homo sapiens) [compound 110] | AML, CML | BRCA, CCC, GBC, GC, HCC, HNSCC, MEL, NHL, NSCLCadeno, NSCLCother, NSCLCsquam, OC, OSCAR, PACA, PRCA, RCC, SCLC, UBC, UEC |
| 111 (VTLIKYQEL; listed as Homo sapiens) [compound 111] | CLL |  |
| 112 (APLLRHWEL; listed as Homo sapiens) [compound 112] | CLL | BRCA, CCC, CRC, GBC, HCC, HNSCC, NHL, NSCLCadeno, NSCLCother, NSCLCsquam, OC, OSCAR, PACA, SCLC |
| 113 (DANSRTSQL; listed as Homo sapiens) [compound 113] | CLL | MEL, NHL, NSCLCadeno, NSCLCother, UEC |
| 114 (HNALRILTF; listed as Homo sapiens) [compound 114] | AML | BRCA, NHL, NSCLCother, NSCLCsquam |
| 115 (ELYQRIYAF; listed as Homo sapiens) [compound 115] | AML | HNSCC, NHL, NSCLCadeno, NSCLCother, NSCLCsquam, PRCA, SCLC |
| 116 (TLKIRAEVL; listed as Homo sapiens) [compound 116] | CLL | CCC, HNSCC, MEL, NHL, NSCLCadeno, NSCLCother, NSCLCsquam, OC, OSCAR, PRCA, SCLC |
| 117 (YIKTAKKL; listed as Homo sapiens) [compound 117] | CLL |  |
| 118 (FEKEKKESL; listed as Homo sapiens) [compound 118] | CLL |  |
| 119 (DLRTKEVVF; listed as Homo sapiens) [compound 119] | CLL | GC, NHL |
| 120 (VPPKKHLL; listed as Homo sapiens) [compound 120] | CLL |  |
| 121 (RPKKVNTL; listed as Homo sapiens) [compound 121] | CLL |  |
| 122 (KELPGVKKY; listed as Homo sapiens) [compound 122] | CLL | CCC, CRC, GC, HCC, NHL, NSCLCadeno, NSCLCsquam, OSCAR, PACA, RCC, UEC |
| 123 (EENPGKFLF; listed as Homo sapiens) [compound 123] | CLL | HNSCC, MEL, NHL, NSCLCadeno, NSCLCsquam, OSCAR, PRCA |

| Substance | Peptide Presentation on cancer entities | Peptide Presentation on tumor types |
| --- | --- | --- |
| 124 (SESLPKEAF; listed as Homo sapiens) [compound 124] | CLL | BRCA, CCC, CRC, GBC, GBM, GC, GEJC, HCC, HNSCC, MEL, NHL, NSCLCadeno, NSCLCother, NSCLCsquam, OC, OSCAR, PACA, PRCA, RCC, SCLC, UBC, UEC |
| 125 (SESTFDRTF; listed as Homo sapiens) [compound 125] | CLL |  |
| 126 (EENKPGIVY; listed as Homo sapiens) [compound 126] | CLL | CRC, HCC, NHL |
| 127 (TEYPVFVY; listed as Homo sapiens) [compound 127] | AML |  |
| 128 (GENDRLNHTY; listed as Homo sapiens) [compound 128] | CLL | NHL |
| 129 (GEGAYGKVF; listed as Homo sapiens) [compound 129] | AML | HCC, HNSCC, NSCLCadeno, OC, OSCAR, RCC |
| 130 (EEEHGKGREY; listed as Homo sapiens) [compound 130] | CLL |  |
| 131 (EEFETIERF; listed as Homo sapiens) [compound 131] | CLL | BRCA, CCC, CRC, GBC, GBM, GC, GEJC, HCC, HNSCC, MEL, NHL, NSCLCadeno, NSCLCother, NSCLCsquam, OC, OSCAR, PACA, PRCA, RCC, SCLC, UBC, UEC |
| 132 (GELPAVRDL; listed as Homo sapiens) [compound 132] | CLL | CRC, GBC, GBM, GC, HCC, HNSCC, NHL, NSCLCadeno, NSCLCother, NSCLCsquam, OC, OSCAR, PACA |
| 133 (AEHNFVAKA; listed as Homo sapiens) [compound 133] | CLL | BRCA, GBM, HNSCC, MEL, NHL, NSCLCadeno, OC, OSCAR |
| 134 (SEYADTHYF; listed as Homo sapiens) [compound 134] | CLL | NHL |
| 135 (NEIKVYITF; listed as Homo sapiens) [compound 135] | AML, CML | BRCA, CRC, HNSCC, NSCLCadeno, NSCLCsquam, PRCA, RCC |
| 136 (AEYKGRVTL; listed as Homo sapiens) [compound 136] | CLL | NHL, OSCAR |
| 137 (GELGGSVTI; listed as Homo sapiens) [compound 137] | CLL |  |
| 138 (SQAPAARAF; listed as Homo sapiens) [compound 138] | CLL | NHL, NSCLCadeno |
| 139 (RENQVLGSGW; listed as Homo sapiens) [compound 139] | CLL | NHL |
| 140 (EYDLKWEF; listed as Homo sapiens) [compound 140] | AML |  |
| 141 (REYEYDLKWEF; listed as Homo sapiens) [compound 141] | AML |  |
| 142 (TEIFKEHNF; listed as Homo sapiens) [compound 142] | AML |  |
| 143 (YEYDLKWEF; listed as Homo sapiens) [compound 143] | AML | NHL |
| 144 (TEGKRYFTW; listed as Homo sapiens) [compound 144] | CLL | MEL, NHL |
| 145 (AEPLVGQRW; listed as Homo sapiens) [compound 145] | CLL | NHL, PRCA, UBC |
| 146 (SESKTVVTY; listed as Homo sapiens) [compound 146] | CLL | CRC, GC, HCC, HNSCC, MEL, NHL, NSCLCadeno, NSCLCsquam, OC, OSCAR, PACA, PRCA, RCC, SCLC, UBC, UEC |
| 147 (KEVPRSYEL; listed as Homo sapiens) [compound 147] | CLL | HNSCC, NHL, NSCLCadeno, NSCLCsquam, OC, OSCAR, RCC |
| 148 (REYNEYENI; listed as Homo sapiens) [compound 148] | CLL | NHL, NSCLCadeno, OSCAR |
